Laboratory results as given in patent publication US10695406B2, “Modulation of cellular stress using a B-cell oxidative and/or endoplasmic reticulum stress inhibitor and a targeting agent” (THE UNIVERSITY OF QUEENSLAND, priority 2014, dated 2020).
Entries after “also recorded” stand apart in the source; their conditions may differ.

Test system: MIN6N8 murine β-cells
Assay: ER stress (ERAI reporter of Xbp1-splicing / Xbp1 splicing) in MIN6N8 β-cells
Assay type: cell-based
Settings: pharmacological inhibitors and siRNA; for Excluded Transcription Factors/Kinases: not required for the cytokine to induce ER stress; for Required Transcription Factors/Kinases: required for the cytokine to induce ER stress
Description: MIN6N8 cells are maintained in line with standard protocols. Cells are transfected with either the ERAI reporter plasmid (F-XBP1ΔDBD-Venus), or the ATF6-GFP plasmid (ADGENE), using LIPFECTAMINE 2000 according to the manufacturer's instructions.
On induction of ER stress, splicing of […] mRNA by IRE1a results in the translation of Venus, but not an active form of XBP1. Fluorescence was measured (excitation: 485 nm; emission: 520 nm) using the POLARstar Omega plate reader and cells were treated 48 h after transfection. The results are normalized with Gapdh expression as fold of vehicle-treated control (Con) cells.
Activation of ATF6 was assessed as follows: the area in pixels per square millimeter co-stained ATF6 and DAPI (blue and green), and total ATF6 staining (green) was determined in 5 fields of view for each section (n=6 for each condition) using IMAGEJ software version 1.45s. Data are presented as the percentage of ATF6 and DAPI co-fluorescence to the total ATF6 fluorescence. Phosphorylation of Ser-51 of eiF2 α was determined by an AlphaScreen assay as per the manufacturer's instructions (PERKIN-ELMER). The Griess reagent method was performed according to the manufacturer's instructions (MOLECULAR PROBES) to assess the intracellular levels of nitric oxide. 5-(and -6-)-carboxy-2,7-dichlorofluorescein diacetate (DCFDA) assay was used to determine the intracellular levels of H2O2 as previously described (Sakon et al., 2003). Cells were treated with glucose or recombinant cytokines at the concentrations indicated in the figure legends, or with 5 μM thapsigargin (SIGMA-ALDRICH) or 10 μg/mL tunicamycin (SIGMA-ALDRICH) or 0.1-0.5 mM Palmitate (SIGMA-ALDRICH) for the times indicated in the legends. ROS was […] using the dihydroethidium (DHE) fluorescent cell-permeable probe (SIGMA-ALDRICH). MIN6N8 cells plated at 2×10^6/mL were incubated with 3 μM DHE and subsequently treated with DMSO (control), 50 ng/mL IL-23 for 30 minutes±[…] IL-22 at the same time or 30 minutes prior to IL-23.
To inhibit transcription factors the following specific inhibitors (and concentrations) were used:
MIN6N8 cells were exposed to a panel of cytokines to determine the effect of each cytokine on ER stress. ER stress was measured using the above-described method. Specifically, the cells were exposed to either a 24 hour treatment of any one of […] glucose (hi glucose), 10 μM H2O2, 0.5 mM palmitic acid or 50 ng/mL cytokines; or a 6 hour treatment with 10 μg/mL tunicamycin or 5 μM thapsigargin.
Experiments to assess ER and/or oxidative stress, and methods of qRT-PCT and/or quantifying gene expression were performed as described for Example 1. Xbp1 splicing is assessed by qRT-PCR, with normalization versus Gapdh, and expression presented as fold of vehicle-treated control cells.

Molecule: IL-17A: ER stress-inducing cytokine
- Excluded Transcription Factors/Kinases: ERK

Molecule: IL-23: ER stress-inducing cytokine
- Excluded Transcription Factors/Kinases: STAT1, STAT5
- Required Transcription Factors/Kinases: STAT3

Molecule: MIP-2α: ER stress-inducing chemokine
- Excluded Transcription Factors/Kinases: ERK, JNK, NFκB,; also recorded: STAT1, STAT3,; also recorded: STAT5
- Required Transcription Factors/Kinases: None identified

Molecule: IL-1β: ER stress-inducing cytokine
- Excluded Transcription Factors/Kinases: ERK, JNK
- Required Transcription Factors/Kinases: NFκB

Molecule: IFN-γ: ER stress-inducing cytokine
- Excluded Transcription Factors/Kinases: STAT1
- Required Transcription Factors/Kinases: NFκB

B1: IL-24: ER stress-inducing cytokine (protein, UniProt Q13007 52-206, looked up)
Interleukin-24: QEFHFGPCQVKGVVPQKLWEAFWAVKDTMQAQDNITSARLLQQEVLQNVSDAESCYLVHTLLEFYLKTVFKNYHNRTVEVRTLKSFSTLANNFVLIVSQLQPSQENEMFSIRDSAHRRFLLFRRAFKQLDVEAALTKALGEVDILLTWMQKFYKL
- Excluded Transcription Factors/Kinases: STAT3
- Required Transcription Factors/Kinases: STAT1

B2: IL-33: ER stress-inducing cytokine (protein, UniProt O95760 1-270, looked up)
Interleukin-33: MKPKMKYSTNKISTAKWKNTASKALCFKLGKSQQKAKEVCPMYFMKLRSGLMIKKEACYFRRETTKRPSLKTGRKHKRHLVLAACQQQSTVECFAFGISGVQKYTRALHDSSITGISPITEYLASLSTYNDQSITFALEDESYEIYVEDLKKDEKKDKVLLSYYESQHPSNESGDGVDGKMLMVTLSPTKDFWLHANNKEHSVELHKCEKPLPDQAFFVLHNMHSNCVSFECKTDPGVFIGVKDNHLALIKVDSSENLCTENILFKLSET
- Excluded Transcription Factors/Kinases: ERK, JNK, STAT1,; also recorded: STAT3
- Required Transcription Factors/Kinases: NFκB, STAT5^2
